These results are taken from publication PMC11520253.

Results are given in words; binding and its absence hold for the method and conditions named.

The target of assay [1] is T1, PgcA monoheme domain III (Geobacter sulfurreducens) (UniProt Q74CB3).
T1 sequence (chain, one c-type heme at the CXXCH motif (axial ligands His459, His491)): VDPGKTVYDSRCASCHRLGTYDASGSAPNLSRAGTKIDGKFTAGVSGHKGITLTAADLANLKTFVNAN
The assay can be described thus: AUC; sedimentation velocity of a mixed sample containing all three monoheme domains; samples diluted to 2 μM in 100 mM Tris-HCl, 100 mM NaCl, pH 8; 129,000 G, 20°C, monitored at 408 nm; c(S) analysis in Sedfit; both purified.

In assay [2] the target is PgcA monoheme domain II (Geobacter sulfurreducens) (UniProt Q74CB3). Kind of assay: AUC; sedimentation velocity, each protein alone; 2 μM in 100 mM Tris-HCl, 100 mM NaCl, pH 8; 129,000 G, 20°C, monitored at 408 nm; c(S) analysis in Sedfit; both purified.
Assay [3] deals with triheme PgcA (residue 253-C terminus fragment of recombinant PgcA) (Geobacter sulfurreducens) (UniProt Q74CB3). The assay is described as above.
Assay [4] concerns the target T1, PgcA monoheme domain III (Geobacter sulfurreducens). The description is as above.

B1: PgcA monoheme domain II (domain or fragment, UniProt Q74CB3 352-414)
chain: NGSALYGNNCQACHGSITNSDIQTRTVSAIQSAISGNRGGMGFLSTLTSAEIQAIATSLASAV
modifications: one c-type heme at the CXXCH motif (axial ligands His365, Met392)
For B1, the binding entry in assay [1] and in assay [2] was “no binding (tested: 2 μM)” each time.

B2: triheme PgcA (residue 253-C terminus fragment of recombinant PgcA) (domain or fragment, UniProt Q74CB3 253-511)
chain: PTPPTPATDGQGLYAANCAACHGALATSEKKGTTLARLQSAVSANAGGMGFLSSLTSAQLQAIVDVLAVAPTPTPTPTPTPTPTPTPTPTPTPTPTPTPNGSALYGNNCQACHGSITNSDIQTRTVSAIQSAISGNRGGMGFLSTLTSAEIQAIATSLASAVTPTPTPTPTPTPTPTPTPTPTPTPTPTPTVDPGKTVYDSRCASCHRLGTYDASGSAPNLSRAGTKIDGKFTAGVSGHKGITLTAADLANLKTFVNAN
modifications: three c-type hemes (615.17 Da each) at the three CXXCH heme binding motifs
Regarding B2, the binding result in assay [3] is on record as “no binding (tested: 2 μM)”.

B3: PgcA monoheme domain III (domain or fragment, UniProt Q74CB3 444-511)
chain: T1 sequence (chain, one c-type heme at the CXXCH motif (axial ligands His459, His491))
modifications: one c-type heme at the CXXCH motif (axial ligands His459, His491)
In the case of B3, in assay [4], the binding entry is on record as “no binding (tested: 2 μM)”.
